# PMC6002838 (The Journal of antibiotics, 2017)
# Key:
# [1] = Cytotoxicity on HUVEC cells; format: cell-based; details: human, HUVEC cells (primary human umbilical cord endothelial cells)
# [2] = Cytotoxicity on THP-1 cells; format: cell-based; details: human, THP-1 cells (KSHV-negative macrophage cell line)
# [3] = Cytotoxicity on BC3 cells; format: cell-based; details: human
# [4] = system: latent KSHV DNA in BC3 cells; assay: qPCR detection of latent KSHV DNA; format: cell-based, Kaposi Sarcoma Herpesvirus (KSHV)
SMILES,CC50 at 6 days [1],CC50 at 6 days [2],CC50 at 6 days [3],SI (CC50/EC50) [4]
"Cc1cc(NS(=O)(=O)c2ccc(N)cc2)no1 [BC6, sulfamethoxazole]",125 ± 31 µg/mL,125 ± 62 µg/mL,100 ± 12 µg/mL,–
"Nc1ccc(S(N)(=O)=O)cc1 [SA4, sulfanilamide]",250 ± 125 µg/mL,125 ± 31 µg/mL,100 ± 50 µg/mL,12.5
